Values of other authors in patent US20060008512A1, “Composition and methods for improved animal performance” (priority 2004, published 2006).
At least one compound was matched to its structure with a doubt left.

System: isolated porcine thyroid follicles
Conditions: DHA at 100 and 300 microM with 10 microM of iodide; cited from earlier work

Compound: CC/C=C\C/C=C\C/C=C\C/C=C\C/C=C\C/C=C\CCC(=O)O [docosahexaenoic acid]
- Inhibitory effect of iodide on thyroid follicle proliferation: 45±4%
